These are yes or no findings as the source states them, for the method shown. In cells and extracts the contact can be indirect. Some entries that bind do so weakly or less than the wild type. Tags and fused reporters may be left off the sequences shown.
Target: T1, V5-His6-tagged RIOK3 expressed in HEK293T cells (human) (UniProt O14730)
T1 sequence: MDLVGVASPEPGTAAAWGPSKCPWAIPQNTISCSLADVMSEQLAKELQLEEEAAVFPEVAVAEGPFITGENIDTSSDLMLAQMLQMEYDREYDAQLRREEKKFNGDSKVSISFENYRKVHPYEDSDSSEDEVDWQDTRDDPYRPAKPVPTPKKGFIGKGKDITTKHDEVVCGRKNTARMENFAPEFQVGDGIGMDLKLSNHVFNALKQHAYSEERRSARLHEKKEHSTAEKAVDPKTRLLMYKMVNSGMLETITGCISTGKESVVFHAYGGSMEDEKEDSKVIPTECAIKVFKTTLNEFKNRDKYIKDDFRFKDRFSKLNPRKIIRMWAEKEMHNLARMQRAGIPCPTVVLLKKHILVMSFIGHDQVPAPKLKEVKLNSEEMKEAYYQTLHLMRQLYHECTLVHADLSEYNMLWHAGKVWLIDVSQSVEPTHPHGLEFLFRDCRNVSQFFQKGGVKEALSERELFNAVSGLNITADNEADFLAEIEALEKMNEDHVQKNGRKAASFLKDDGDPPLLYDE
Experiment: co-IP; V5-His6-RIOK3 co-transfected in HEK293T with HA-tagged wt, K63- or K48-specific ubiquitin; lysate immunoprecipitated with anti-V5 or mouse IgG control; immunoblot with anti-HA

Substance | binding
HA-Ub-K48 (K48-linked Ub chains) (from UniProt P0CG48 1-76) | no binding
HA-Ub-K63 (K63-linked Ub chains) (from UniProt P0CG48 1-76) | binds
